Measurements taken from patent publication US9345696B2, “Methods for treating nicotinic acetylcholine receptor associated diseases” (priority 2010, dated 2016).
For at least one compound, name, drawing or mass did not settle the structure.

Test system: V1 of wild-type mice
Experiment: Recovery from amblyopia: visual acuity by visual evoked potentials in V1 after long-term MD and eye reopening
Assay type: in vivo, mouse
Conditions: WT mice, injection during the period of eye reopening
Source text: Eyelid margins were trimmed by iris scissor and eyes sutured shut under isoflurane anesthesia. Eyes were closed 4-5 days for short term MD (STMD), from P19 to >P60 for long term MD (CP-LTMD), and from P19 to P33 for recovery studies.

CNC(=O)Oc1ccc2c(c1)[C@]1(C)CCN(C)[C@@H]1N2C [physostigmine]
recovery of vision in amblyopic adult wild-type mice (in words): restored vision
